This passage reports cell number change and AC50 results from PubChem BioAssay AID2685 (National Center for Advancing Translational Sciences (NCATS), 2010).

This test in a line: qHTS Assay for Lipid Storage Modulators in Drosophila S3 Cells.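 As to cell number change: cells counted by Cell Tracker Red CMTPX staining in the red channel.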 The conditions noted are these: BODIPY lipid droplet fluorescence, 18-24 h; for cell number change: measured here: cell count max response, cells fed with added oleic acid. The gist of the method:
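Drosophila S3 cells loaded with oleic acid (400 uM, as added) and compounds at several concentrations; lipid droplets imaged by 488-nm laser-scanning cytometry, 500–530 nm intensity and object ratio to cell channel. Percent activity normalized to 20 uM Triacsin C.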

The mark [1] stands for this setting: measured here: lipid fluorescence (Fed channel) AC50, cells fed with added oleic acid.
Where [2] appears, read: measured here: cell number channel AC50, cells fed with added oleic acid.

Structures are written as SMILES. The list shows a part of the results. Further columns of the screen follow, without active or inactive calls. Most of these compounds were active or inconclusive in the main read-out, so they are no random draw. Words in brackets tell the shape of the fitted curve; partial curves, single points and poor fits give uncertain potencies.

Turning to `Cc1nc2ccc(NC(=S)N3CCOCC3)cc2nc1C`, the cell number change is -42.7%.

Turning to `CCc1c(C)nc2ncnn2c1N1CCCC(C(=O)NCc2cccs2)C1` (stereo unspecified), the cell number change is -13.3%. Besides, the AC50 under setting [1] was 29.1 µM [falling, single point].

On to `COc1ccc(C2(O)CCN(CC(=O)Nc3nc(-c4ccccc4)cs3)CC2)cc1`, for which the AC50 was 0.58 µM [rising, single point] under setting [2] and 23.1 µM [rising, single point] under setting [1].

`CCC(NC(=S)NCc1ccc(F)cc1)c1ccc(C(C)C)cc1` (stereo unspecified): the AC50 reads like this: under setting [2], 0.164 µM [rising, full curve, poor fit]; under setting [1], 0.58 µM [rising, single point].

Take `CCC1COCCS(=O)(=O)N1Cc1cccc(Cl)c1` (stereo unspecified): the cell number change is -11.3%. Under setting [1], the AC50 was 4.11 µM [falling, single point].

`CCOc1ccc(N=Nc2c(=O)[nH]n3c(=O)cc(C)[nH]c23)cc1`: the half-maximal activity concentration (AC50) under setting [1] is 29.1 µM [rising, single point].

Consider `COc1ccc2c(=O)cc(-c3cccnc3)oc2c1OC`, for which the cell number change was 13.9%. Also, the AC50 under setting [1] is 4.11 µM [rising, full curve, poor fit].

Consider `COC(=O)COc1ccc(S(=O)(=O)NCc2ccc3c(c2)OCO3)cc1`, for which the cell number change is 16.4%. Besides, under setting [1], the AC50 is 10.3 µM [rising, single point].

As to `CC(=O)CC(c1ccccc1)S(=O)(=O)c1ccc(C)cc1` (stereo unspecified), the AC50 under setting [1] is 29.1 µM [rising, single point].

On to `COc1cc(CNc2ccc(CNc3ncn[nH]3)cc2)cc(Cl)c1OCc1ccccc1`, for which the cell number change stood at 20.5%. In addition, the AC50 under setting [1] is 29.1 µM [rising, single point].

`O=C(CNc1ccc2c(c1)OCO2)N/N=C\c1cn(Cc2ccccc2)c2ccccc12`: the cell number change was determined as 9.29%. Moreover, the AC50 under setting [1] was 0.0259 µM [rising, full curve].

In the case of `O=C(c1ccc(Cl)cc1)c1ccc(OCC(=O)N2CCOCC2)cc1`, the cell number change stood at 42.5%. In addition, the concentration at half-maximal activity (AC50) under setting [2] was 4.11 µM [rising, full curve]. The AC50 under setting [1] was 29.1 µM [rising, partial curve].

As for `CCOC(=O)CC1=C(C(=O)OCC)C(c2ccncc2)C(C#N)=C(N)O1` (stereo unspecified), the cell number change is -19.1%. Besides, the half-maximal activity concentration (AC50) under setting [1] was 0.731 µM [falling, partial curve].

Turning to `COc1ccccc1C(=O)NC(CCSC)C(=O)NNC(=O)C(C)Oc1ccccc1F` (stereo unspecified), the cell number change is -21%. For the same molecule, the concentration at half-maximal activity (AC50) under setting [1] is 0.00461 µM [falling, full curve, poor fit].

`O=C(N/N=C/C(Br)=C\c1ccccc1)c1ccco1`: the cell number change turned out to be 4.16%. Also, under setting [1], the AC50 was 0.291 µM [rising, full curve, poor fit].

Regarding `Cc1ccc(-c2nnc(N(C)C(=O)c3ccccn3)s2)cn1`, under setting [1], the AC50 is 6.51 µM [falling, single point].

In the case of `CCn1c(N2CCN(Cc3ccc([N+](=O)[O-])cc3)CC2)nc2ccccc21`, the cell number change was -7.61%. The AC50 under setting [1] was 20.6 µM [falling, single point].

For the molecule `O=C(c1ccco1)N1CCN(S(=O)(=O)/C=C/c2ccccc2)CC1`, the cell number change was found to be 38.6%. Moreover, the AC50 under setting [2] is 10.3 µM [rising, single point].

Consider `CN(Cc1ccc(Cl)cc1)C(=O)CCl`, for which the cell number change was -8.43%. For the same molecule, the half-maximal activity concentration (AC50) under setting [1] is 0.00411 µM [falling, full curve, poor fit].

As to `Oc1ccccc1N=Cc1c(O)ccc2ccccc12`, the cell number change is -35%. The AC50 under setting [2] is 29.1 µM [falling, single point]. Further, the AC50 under setting [1] was 6.51 µM [rising, single point].

Turning to `Cc1ccc(C)c(S(=O)(=O)N2CCN(C(=O)c3ccncc3)CC2)c1`, the cell number change was -2.24%.

As for `S=C(NCCCN1CCOCC1)N(Cc1ccccc1)Cc1ccccc1`, under setting [1], the concentration at half-maximal activity (AC50) is 29.1 µM [rising, partial curve, poor fit].

Take `O=C(COC(=O)c1cc2ccccc2cc1O)NC(=O)NCc1ccco1`: the cell number change was -30.3%. Besides, under setting [2], the AC50 is 18.4 µM [falling, single point]. The AC50 under setting [1] is 18.4 µM [falling, single point].

With `O=C(NCc1ccc(F)cc1)c1cnc2sccn2c1=O`, the AC50 under setting [1] was 0.58 µM [rising, single point].

As to `COC(=O)CCCC(=O)N1CCCC(C(=O)c2ccccc2SC)C1` (stereo unspecified), the cell number change turned out to be 11.2%. The AC50 under setting [1] was 6.51 µM [falling, single point].

As for `COc1ccc(C(=O)NC2CCCc3ccccc32)cc1Br` (stereo unspecified), the cell number change was -23.8%. Also, the AC50 under setting [1] is 6.51 µM [falling, single point].

On to `CC(C)Cn1c(N)c(C(=O)COC(=O)C2CCCCC2)c(=O)n(C)c1=O`, for which the cell number change was 2.49%. Besides, the AC50 under setting [2] is 3.26 µM [rising, single point]. Further, under setting [1], the AC50 is 6.51 µM [rising, single point].

Regarding `CN(Cc1ccc(F)cc1)C(=O)CNC(=O)C1CCCCC1`, the cell number change was 38.7%. The AC50 under setting [1] was 6.51 µM [rising, partial curve, poor fit].

Turning to `Cn1c(N/N=C/c2c[nH]c3ccccc23)nc2ccccc21`, the cell number change came to 6.54%. Moreover, the AC50 under setting [1] is 2.06 µM [rising, single point].

`CC(=O)O[C@]1(C(C)=O)CCC2C3C=C(C)C4=CC(=O)CC[C@]4(C)C3CC[C@@]21C` (stereo partly specified): the cell number change was 22.2%. Under setting [2], the AC50 was 0.291 µM [rising, full curve, poor fit].

For the molecule `CC(C)CCNC(=O)CCNS(=O)(=O)c1ccc(Cl)cc1`, the cell number change is -21.8%. Under setting [1], the AC50 is 2.91 µM [falling, partial curve].

`CN(C(=O)Cc1noc2ccccc12)c1ccccc1`: the cell number change worked out at 0.218%. The AC50 under setting [1] is 0.146 µM [falling, full curve, poor fit].

`Cc1cc(Cn2ccnc2)c(C)cc1Cn1ccnc1`: the AC50 under setting [1] was 0.116 µM [rising, full curve, poor fit].

As for `CC(C)c1ccccc1OCC(O)CN1CCN(S(=O)(=O)c2ccc([N+](=O)[O-])cc2)CC1` (stereo unspecified), the cell number change was -8.38%.

`CC(C)CC(OC(=O)c1ccc(Cl)nc1)C(=O)NC1CCCC1` (stereo unspecified): the cell number change is 16.2%. Under setting [1], the half-maximal activity concentration (AC50) was 29.1 µM [rising, partial curve].

Consider `Cc1nc(-c2ccc(S(=O)(=O)NCc3cccnc3)s2)cs1`, for which the cell number change was -9.24%.

On to `CCOC(=O)c1cnn(-c2ccccc2)c1NC(=O)c1ccc(C)cc1`, for which the cell number change stood at 52.7%. For the same molecule, under setting [2], the AC50 was 18.4 µM [rising, single point]. Also, under setting [1], the AC50 is 0.259 µM [rising, full curve].

Regarding `CCNC(=S)N/N=C(\C)c1cccc(OC)c1`, the cell number change is 6.41%. Besides, the AC50 under setting [1] was 6.51 µM [falling, single point].

In the case of `CCOc1ccc(S(=O)(=O)NCCC(=O)NCC(c2ccc(OC)cc2)N2CCCC2)cc1` (stereo unspecified), the cell number change was 3.74%. Further, the AC50 under setting [1] was 29.1 µM [falling, single point].

`COc1ccc(NC(=O)N2CCc3ccccc32)cc1`: the cell number change worked out at 20.7%.

For the molecule `O=C(CCOc1ccccc1)N1CCN(S(=O)(=O)c2ccccc2F)CC1`, the cell number change was -1.84%. The AC50 under setting [1] was 29.1 µM [rising, single point].

For `COc1ccc(CN(C)C(=O)c2cccc(S(=O)(=O)N3CCc4ccccc43)c2)c(OC)c1`, the cell number change is -27.5%. Besides, the AC50 under setting [1] was 0.58 µM [rising, single point].

On to `Nc1c(Cl)c(Cl)nc(C(=O)N/N=C/c2cccnc2)c1Cl`, for which the cell number change was found to be 19.2%.

Consider `CS(=O)(=O)c1ccc(C(=O)N2CC(=O)Nc3ccccc32)cc1`, for which the cell number change is 8.33%. The AC50 under setting [1] was 0.13 µM [rising, partial curve, poor fit].

With `O=C(CN1C(=O)CSC1=O)N1CCCC(Nc2ccc(F)cc2)C1` (stereo unspecified), the cell number change is -20.9%. Moreover, the AC50 under setting [1] was 29.1 µM [falling, single point].

Take `O=C(Nc1cccc(Cl)c1)c1cc(F)cc2c1OCOC2`: the cell number change worked out at 0.0296%.

In the case of `Cc1ccc2[nH]c(=O)c(CN(Cc3nnnn3C3CCCC3)C3CCCCC3)cc2c1`, the cell number change worked out at 0.26%. Under setting [1], the AC50 was 0.13 µM [falling, full curve, poor fit].

Regarding `O=C1/C(=C/c2ccccc2)CSc2sccc21`, the cell number change is -0.195%. Further, the AC50 under setting [1] is 0.00461 µM [falling, full curve, poor fit].

Regarding `COCCn1c(NCc2ccco2)nc2c1c(=O)[nH]c(=O)n2C`, the cell number change worked out at 18%. The AC50 under setting [1] was 0.517 µM [falling, single point].

Consider `Cc1c(OCC(=O)NC(Cc2c[nH]c3ccc(O)cc23)C(=O)O)ccc2c3c(c(=O)oc12)CCC3` (stereo unspecified), for which the cell number change amounted to 0.81%.

Consider `Cc1ncc(CO)c(/C=N/NC(=O)c2cc(Br)ccc2O)c1O`, for which the cell number change was 14.1%. The AC50 under setting [2] was 6.51 µM [falling, single point]. For the same molecule, the concentration at half-maximal activity (AC50) under setting [1] is 3.66 µM [falling, full curve].

Consider `Cc1cccc(-n2ccnc2SCC(=O)Nc2nccs2)c1C`, for which the cell number change was -18.1%. Also, the AC50 under setting [1] was 5.17 µM [rising, partial curve, poor fit].

Turning to `Cc1ccc(CCNc2ccccc2)c[n+]1[O-]`, the AC50 under setting [2] is 0.58 µM [rising, single point] and the AC50 under setting [1] is 0.58 µM [rising, single point].

Turning to `COC(=O)NNC(=O)COc1ccccc1C`, the cell number change is -12.4%. Besides, the AC50 under setting [1] is 3.66 µM [falling, full curve].

For `Cn1c(C(=O)O)c(CC(=O)Nc2ccc(F)cc2F)c2ccccc21`, the cell number change was -13.8%. The AC50 under setting [1] is 0.411 µM [rising, full curve].

In the case of `CCC(CNC(=O)c1c(C)nn(-c2ccccc2)c1Cl)c1ccccc1` (stereo unspecified), the cell number change was determined as 17.9%. In addition, under setting [1], the AC50 was 16.4 µM [rising, partial curve].

On to `O=C(O)CCn1c(=O)[nH]c2ccccc2c1=O`, for which the cell number change is -135%. Besides, under setting [2], the AC50 was 25.9 µM [falling, partial curve]. In addition, under setting [1], the half-maximal activity concentration (AC50) was 23.1 µM [falling, partial curve].

`COc1ccc2c(C)cc(SCC(=O)Nc3cccnc3Cl)nc2c1`: the cell number change was found to be 119%.

Take `COc1ccc([C@@H]2[C@@H](C(=O)C(C)(C)C)N3N=Cc4ccccc4[C@@H]3C23C(=O)OC(C)(C)OC3=O)cc1OC`: the AC50 under setting [2] is 0.092 µM [rising, full curve, poor fit].

In the case of `Nc1cc(=O)[nH]c(SCC(=O)Nc2cc([N+](=O)[O-])ccc2Cl)n1`, the cell number change was 76.1%. In addition, under setting [2], the AC50 was 29.1 µM [rising, single point].

In the case of `CCCCn1nc(NC(=O)c2cccs2)c2cc3ccccc3nc21`, the cell number change was -26.5%. In addition, the AC50 under setting [2] is 4.61 µM [falling, full curve, poor fit]. Further, under setting [1], the AC50 was 6.51 µM [falling, partial curve, poor fit].

Regarding `CCn1cc(CN2CCC(n3nccc3NC(=O)c3ccc4c(c3)OCO4)CC2)c(C)n1`, the cell number change was -14.7%. Also, under setting [1], the half-maximal activity concentration (AC50) was 1.84 µM [rising, partial curve].
